The list shows a part of the results. This data set is noisy: repeats of one test often differ as much as different tests do.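 Human embryonic kidney cells were transiently transfected with a plasmid bearing a Renilla luciferase gene under the HSV-TK promoter. This first-round screen tests roughly ten thousand compounds for ones that increase reporter output.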

The test system of this assay is HEK 293FT. The assay can be described thus: log relative Renilla luciferase luminescence (reporter expression vs reference, reference not stated) (log (base not stated)); higher = higher recombinant reporter expression. Conditions: 10 µM; time after transfection 48 h. As for the experimental part: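 HEK 293FT cells transiently transfected with pRL-TK (Renilla luciferase) were treated with compounds at 10 uM and luminescence was read about 42 h later. Values are log relative Renilla luminescence (log base and reference not stated). Single-pass screen; 2080 natural products library.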
As for `COC(=O)C1=CC[C@@]23CC[C@@H]([C@@](C)(/C=C/C=C(\C)C(=O)OC)OC2=O)[C@@]3(OC(C)=O)CC1` [Methylpseudolarate B], the log was -0.48.

For the molecule `Oc1ccc(-c2oc3cc(O)cc4c3c2-c2cc(O)cc3c2[C@H](c2cc(O)cc5c2[C@@H]4[C@H](c2ccc(O)cc2)O5)[C@@H](c2ccc(O)cc2)O3)cc1` [Caraphenol A], the log was -0.163.

As to `CC1(C)[C@@H](O)CC[C@]2(C)C3=C(CC[C@@H]12)[C@@]1(C)CC[C@@]2(C)CC[C@@](C)(C(=O)O)C[C@H]2[C@]1(C)CC3` [Bryonolic acid], the log is -0.0329.

On to `CC(=O)c1ccc2c(c1)C=CC(C)(C)O2` [Demethoxyencecalin], for which the log came out at 0.0788.

As to `O=c1c2ccccc2nc2n1CCc1c-2[nH]c2ccccc12` [Rutaecarpine], the log is -0.00754.

For the molecule `CC1(C)C(=O)CC[C@]2(C)[C@@H]1CC[C@@]13C[C@H](CC[C@H]12)[C@](O)(CO)C3` (single isomer, unassigned; ent-3) [ent-3-Oxokaurane-16,17-diol], the log was -0.0758.

For the molecule `CC[C@H](CC[C@@H](C)[C@H]1CC[C@H]2[C@@H]3C[C@@H](O)C4=C[C@@H](O)CC[C@]4(C)[C@H]3CC[C@]12C)C(C)C` [Stigmast-4-ene-3,6-diol], the log was 0.185.

Consider `C[C@H](O)C[C@H]1CCCCN1C` [(+)-N-Methylallosedridine], for which the log came to 0.0106.

As for `C/C(=C\C(=O)O)CC[C@@]1(O)[C@@H](C)CC[C@H]2C(C)(C)CCC[C@@]21C` [9-Hydroxy-13E-labden-15-oic acid], the log was -0.24.

Consider `C=C(C)[C@@H](O)[C@H](O)c1c(OC)ccc2ccc(=O)oc12` [Minumicrolin], for which the log was -0.0547.

`O=c1ccc2ncc(O)c3c4ccccc4n1c23` [1-Hydroxycanthin-6-one]: the log is -1.1.

On to `COc1cc2c(c(OC)c1OC)-c1c(cc(OC)c(OC)c1OC)C[C@](C)(O)[C@@H](C)C2` [Schizandrin], for which the log was -0.0903.

As for `COc1cc([C@H]2OC[C@H]3[C@@H]2CO[C@@H]3c2ccc(OC(C)=O)c(OC)c2)ccc1OC(C)=O` [(+)-Pinoresinol diacetate], the log was determined as 0.0724.

Consider `C=C(C)C1CCC(C)(O)C(O)C1` (stereo unspecified) [p-Menth-8-ene-1,2-diol], for which the log is -0.225.

For the molecule `C=C1C(=O)O[C@H]2C[C@@H](C)[C@@H]3CC[C@H](O)[C@@]3(C)C[C@H]12` [2-Desoxy-4-epi-pulchellin], the log is -0.366.

`CC(=O)O[C@@H]1C[C@@]23C[C@@]24CC[C@H](O[C@@H]2OC[C@@H](O)[C@H](O)[C@H]2O)C(C)(C)[C@@H]4CC[C@H]3[C@]2(C)C[C@@H]3O[C@]4(C[C@@H](C)[C@@H]3[C@@]12C)O[C@H](O)[C@@]1(C)O[C@@H]41` [Actein]: the log is 0.0419.

For the molecule `C=C(CCC(O)C(C)(C)O)[C@H]1CC[C@]2(C)[C@@H]1CC[C@@H]1[C@@]3(C)CCC(=O)C(C)(C)[C@@H]3CC[C@]12C` (stereo partly specified) [24,25-Dihydroxydammar-20-en-3-one], the log was 0.00908.

With `CCCCCCCCC=CCCCCCCCc1cc(O)cc(O)c1` (stereo in doubt) [5-(Z-heptadec-8-enyl) resorcinol], the log is -0.083.

Consider `C=C1CC[C@H]2[C@@](C)(COC(C)=O)CCC[C@]2(C)[C@H]1CC/C(C)=C/COC(C)=O` [Agathadiol diacetate], for which the log was -0.119.

With `COc1ccc(C[C@H]2CO[C@H](c3ccc(OC)c(OC)c3)[C@H]2CO)cc1OC` [Lariciresinol dimethyl ether], the log came to 0.0888.

Turning to `CC[C@@]12CCCN3C(=O)C=C(c4ccccc4NC(=O)CC1)[C@]32O` [Leuconolam], the log was found to be 0.0171.

`C=C(C)C(O)CC[C@@H](C)[C@H]1CC[C@@]2(C)[C@@H]3CC[C@H]4C(C)(C)[C@@H](O)CC[C@@]45C[C@@]35CC[C@]12C` (stereo partly specified) [Cycloart-25-ene-3,24-diol]: the log was -0.288.

Consider `C=C1CC[C@H]2C(=C)CC[C@@H]3[C@H](OC(=O)[C@@H]3CS(=O)(=O)O)[C@@H]12` [Sulfocostunolide B], for which the log was -1.2.

`C=C(C)[C@@H]1CC[C@]2(C)CC[C@]3(C)[C@H](CC[C@@H]4[C@@]5(C)CC[C@@H](O)[C@@](C)(CO)[C@@H]5CC[C@]43C)[C@@H]12` [20(29)-Lupene-3,23-diol]: the log was determined as 0.232.

As to `COc1c2ccoc2c(OC)c2oc(=O)ccc12` [Isopimpinellin], the log is -0.0216.

For `C=C(CO)[C@@H]1CC[C@H]2[C@]3(CC[C@]4(C)[C@@H]([C@H](C)CC[C@@H](O)C(C)(C)O)CC[C@@]24C)C[C@]13CCC(=O)O` [Secaubrytriol], the log was -0.0564.

Source of the values: the supplement of paper PMC7024190.
